Results on two molecules are retold here after article PMC5650356.

Assay [1] has as its target T1, Flag-tagged FAM83D (family with sequence similarity 83, member D) (human) (UniProt Q9H4H8).
T1 sequence: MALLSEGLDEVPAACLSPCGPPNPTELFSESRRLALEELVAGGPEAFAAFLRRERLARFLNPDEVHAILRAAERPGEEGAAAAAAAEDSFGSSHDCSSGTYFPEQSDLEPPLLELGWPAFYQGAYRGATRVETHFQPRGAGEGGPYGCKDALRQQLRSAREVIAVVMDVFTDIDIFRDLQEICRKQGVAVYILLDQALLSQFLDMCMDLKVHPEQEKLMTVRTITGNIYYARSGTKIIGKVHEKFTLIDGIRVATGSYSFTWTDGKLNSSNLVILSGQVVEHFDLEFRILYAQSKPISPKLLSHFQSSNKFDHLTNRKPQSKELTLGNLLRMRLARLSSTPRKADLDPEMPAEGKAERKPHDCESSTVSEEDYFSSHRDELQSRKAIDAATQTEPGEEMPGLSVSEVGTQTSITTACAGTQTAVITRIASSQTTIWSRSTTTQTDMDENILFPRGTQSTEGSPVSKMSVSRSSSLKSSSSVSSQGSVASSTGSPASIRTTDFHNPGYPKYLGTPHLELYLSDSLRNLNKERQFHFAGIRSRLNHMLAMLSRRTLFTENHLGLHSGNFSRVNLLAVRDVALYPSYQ
As to the kind of experiment: co-IP; flag-tagged AGS/FAM83D cells, mitotic (300nM nocodazole 24h, shake-off); NP-40 lysis buffer, pre-cleared; primary antibodies overnight at 4 °C, protein A/G plus agarose 4h at 4 °C; five washes in lysis buffer; Western blot. (In general: A western blot detects proteins with antibodies after separation by electrophoresis.)

The target of assay [2] is α-tubulin (human (endogenous in AGS)). Described as above.

Results are given in words; binding and its absence hold for the method and conditions named. In cells and extracts the contact can be indirect. Binding can be weak; no strength is given. Sequences can lack the tags named with a protein.

Take α-tubulin (human (endogenous in AGS)): the binding entry in assay [1] was “binds”.

B1: Flag-tagged FAM83D (family with sequence similarity 83, member D) (protein, UniProt Q9H4H8 1-585)
chain: MALLSEGLDEVPAACLSPCGPPNPTELFSESRRLALEELVAGGPEAFAAFLRRERLARFLNPDEVHAILRAAERPGEEGAAAAAAAEDSFGSSHDCSSGTYFPEQSDLEPPLLELGWPAFYQGAYRGATRVETHFQPRGAGEGGPYGCKDALRQQLRSAREVIAVVMDVFTDIDIFRDLQEICRKQGVAVYILLDQALLSQFLDMCMDLKVHPEQEKLMTVRTITGNIYYARSGTKIIGKVHEKFTLIDGIRVATGSYSFTWTDGKLNSSNLVILSGQVVEHFDLEFRILYAQSKPISPKLLSHFQSSNKFDHLTNRKPQSKELTLGNLLRMRLARLSSTPRKADLDPEMPAEGKAERKPHDCESSTVSEEDYFSSHRDELQSRKAIDAATQTEPGEEMPGLSVSEVGTQTSITTACAGTQTAVITRIASSQTTIWSRSTTTQTDMDENILFPRGTQSTEGSPVSKMSVSRSSSLKSSSSVSSQGSVASSTGSPASIRTTDFHNPGYPKYLGTPHLELYLSDSLRNLNKERQFHFAGIRSRLNHMLAMLSRRTLFTENHLGLHSGNFSRVNLLAVRDVALYPSYQ
Take B1: the binding result in assay [2] was “binds”.
